Paper PMC7946643
Results are given in words; binding and its absence hold for the method and conditions named. In cells and extracts the contact can be indirect. Some entries that bind do so weakly or less than the wild type.

The chains behind the UniProt entries cited, without tags or fusion partners.
UniProt Q09666: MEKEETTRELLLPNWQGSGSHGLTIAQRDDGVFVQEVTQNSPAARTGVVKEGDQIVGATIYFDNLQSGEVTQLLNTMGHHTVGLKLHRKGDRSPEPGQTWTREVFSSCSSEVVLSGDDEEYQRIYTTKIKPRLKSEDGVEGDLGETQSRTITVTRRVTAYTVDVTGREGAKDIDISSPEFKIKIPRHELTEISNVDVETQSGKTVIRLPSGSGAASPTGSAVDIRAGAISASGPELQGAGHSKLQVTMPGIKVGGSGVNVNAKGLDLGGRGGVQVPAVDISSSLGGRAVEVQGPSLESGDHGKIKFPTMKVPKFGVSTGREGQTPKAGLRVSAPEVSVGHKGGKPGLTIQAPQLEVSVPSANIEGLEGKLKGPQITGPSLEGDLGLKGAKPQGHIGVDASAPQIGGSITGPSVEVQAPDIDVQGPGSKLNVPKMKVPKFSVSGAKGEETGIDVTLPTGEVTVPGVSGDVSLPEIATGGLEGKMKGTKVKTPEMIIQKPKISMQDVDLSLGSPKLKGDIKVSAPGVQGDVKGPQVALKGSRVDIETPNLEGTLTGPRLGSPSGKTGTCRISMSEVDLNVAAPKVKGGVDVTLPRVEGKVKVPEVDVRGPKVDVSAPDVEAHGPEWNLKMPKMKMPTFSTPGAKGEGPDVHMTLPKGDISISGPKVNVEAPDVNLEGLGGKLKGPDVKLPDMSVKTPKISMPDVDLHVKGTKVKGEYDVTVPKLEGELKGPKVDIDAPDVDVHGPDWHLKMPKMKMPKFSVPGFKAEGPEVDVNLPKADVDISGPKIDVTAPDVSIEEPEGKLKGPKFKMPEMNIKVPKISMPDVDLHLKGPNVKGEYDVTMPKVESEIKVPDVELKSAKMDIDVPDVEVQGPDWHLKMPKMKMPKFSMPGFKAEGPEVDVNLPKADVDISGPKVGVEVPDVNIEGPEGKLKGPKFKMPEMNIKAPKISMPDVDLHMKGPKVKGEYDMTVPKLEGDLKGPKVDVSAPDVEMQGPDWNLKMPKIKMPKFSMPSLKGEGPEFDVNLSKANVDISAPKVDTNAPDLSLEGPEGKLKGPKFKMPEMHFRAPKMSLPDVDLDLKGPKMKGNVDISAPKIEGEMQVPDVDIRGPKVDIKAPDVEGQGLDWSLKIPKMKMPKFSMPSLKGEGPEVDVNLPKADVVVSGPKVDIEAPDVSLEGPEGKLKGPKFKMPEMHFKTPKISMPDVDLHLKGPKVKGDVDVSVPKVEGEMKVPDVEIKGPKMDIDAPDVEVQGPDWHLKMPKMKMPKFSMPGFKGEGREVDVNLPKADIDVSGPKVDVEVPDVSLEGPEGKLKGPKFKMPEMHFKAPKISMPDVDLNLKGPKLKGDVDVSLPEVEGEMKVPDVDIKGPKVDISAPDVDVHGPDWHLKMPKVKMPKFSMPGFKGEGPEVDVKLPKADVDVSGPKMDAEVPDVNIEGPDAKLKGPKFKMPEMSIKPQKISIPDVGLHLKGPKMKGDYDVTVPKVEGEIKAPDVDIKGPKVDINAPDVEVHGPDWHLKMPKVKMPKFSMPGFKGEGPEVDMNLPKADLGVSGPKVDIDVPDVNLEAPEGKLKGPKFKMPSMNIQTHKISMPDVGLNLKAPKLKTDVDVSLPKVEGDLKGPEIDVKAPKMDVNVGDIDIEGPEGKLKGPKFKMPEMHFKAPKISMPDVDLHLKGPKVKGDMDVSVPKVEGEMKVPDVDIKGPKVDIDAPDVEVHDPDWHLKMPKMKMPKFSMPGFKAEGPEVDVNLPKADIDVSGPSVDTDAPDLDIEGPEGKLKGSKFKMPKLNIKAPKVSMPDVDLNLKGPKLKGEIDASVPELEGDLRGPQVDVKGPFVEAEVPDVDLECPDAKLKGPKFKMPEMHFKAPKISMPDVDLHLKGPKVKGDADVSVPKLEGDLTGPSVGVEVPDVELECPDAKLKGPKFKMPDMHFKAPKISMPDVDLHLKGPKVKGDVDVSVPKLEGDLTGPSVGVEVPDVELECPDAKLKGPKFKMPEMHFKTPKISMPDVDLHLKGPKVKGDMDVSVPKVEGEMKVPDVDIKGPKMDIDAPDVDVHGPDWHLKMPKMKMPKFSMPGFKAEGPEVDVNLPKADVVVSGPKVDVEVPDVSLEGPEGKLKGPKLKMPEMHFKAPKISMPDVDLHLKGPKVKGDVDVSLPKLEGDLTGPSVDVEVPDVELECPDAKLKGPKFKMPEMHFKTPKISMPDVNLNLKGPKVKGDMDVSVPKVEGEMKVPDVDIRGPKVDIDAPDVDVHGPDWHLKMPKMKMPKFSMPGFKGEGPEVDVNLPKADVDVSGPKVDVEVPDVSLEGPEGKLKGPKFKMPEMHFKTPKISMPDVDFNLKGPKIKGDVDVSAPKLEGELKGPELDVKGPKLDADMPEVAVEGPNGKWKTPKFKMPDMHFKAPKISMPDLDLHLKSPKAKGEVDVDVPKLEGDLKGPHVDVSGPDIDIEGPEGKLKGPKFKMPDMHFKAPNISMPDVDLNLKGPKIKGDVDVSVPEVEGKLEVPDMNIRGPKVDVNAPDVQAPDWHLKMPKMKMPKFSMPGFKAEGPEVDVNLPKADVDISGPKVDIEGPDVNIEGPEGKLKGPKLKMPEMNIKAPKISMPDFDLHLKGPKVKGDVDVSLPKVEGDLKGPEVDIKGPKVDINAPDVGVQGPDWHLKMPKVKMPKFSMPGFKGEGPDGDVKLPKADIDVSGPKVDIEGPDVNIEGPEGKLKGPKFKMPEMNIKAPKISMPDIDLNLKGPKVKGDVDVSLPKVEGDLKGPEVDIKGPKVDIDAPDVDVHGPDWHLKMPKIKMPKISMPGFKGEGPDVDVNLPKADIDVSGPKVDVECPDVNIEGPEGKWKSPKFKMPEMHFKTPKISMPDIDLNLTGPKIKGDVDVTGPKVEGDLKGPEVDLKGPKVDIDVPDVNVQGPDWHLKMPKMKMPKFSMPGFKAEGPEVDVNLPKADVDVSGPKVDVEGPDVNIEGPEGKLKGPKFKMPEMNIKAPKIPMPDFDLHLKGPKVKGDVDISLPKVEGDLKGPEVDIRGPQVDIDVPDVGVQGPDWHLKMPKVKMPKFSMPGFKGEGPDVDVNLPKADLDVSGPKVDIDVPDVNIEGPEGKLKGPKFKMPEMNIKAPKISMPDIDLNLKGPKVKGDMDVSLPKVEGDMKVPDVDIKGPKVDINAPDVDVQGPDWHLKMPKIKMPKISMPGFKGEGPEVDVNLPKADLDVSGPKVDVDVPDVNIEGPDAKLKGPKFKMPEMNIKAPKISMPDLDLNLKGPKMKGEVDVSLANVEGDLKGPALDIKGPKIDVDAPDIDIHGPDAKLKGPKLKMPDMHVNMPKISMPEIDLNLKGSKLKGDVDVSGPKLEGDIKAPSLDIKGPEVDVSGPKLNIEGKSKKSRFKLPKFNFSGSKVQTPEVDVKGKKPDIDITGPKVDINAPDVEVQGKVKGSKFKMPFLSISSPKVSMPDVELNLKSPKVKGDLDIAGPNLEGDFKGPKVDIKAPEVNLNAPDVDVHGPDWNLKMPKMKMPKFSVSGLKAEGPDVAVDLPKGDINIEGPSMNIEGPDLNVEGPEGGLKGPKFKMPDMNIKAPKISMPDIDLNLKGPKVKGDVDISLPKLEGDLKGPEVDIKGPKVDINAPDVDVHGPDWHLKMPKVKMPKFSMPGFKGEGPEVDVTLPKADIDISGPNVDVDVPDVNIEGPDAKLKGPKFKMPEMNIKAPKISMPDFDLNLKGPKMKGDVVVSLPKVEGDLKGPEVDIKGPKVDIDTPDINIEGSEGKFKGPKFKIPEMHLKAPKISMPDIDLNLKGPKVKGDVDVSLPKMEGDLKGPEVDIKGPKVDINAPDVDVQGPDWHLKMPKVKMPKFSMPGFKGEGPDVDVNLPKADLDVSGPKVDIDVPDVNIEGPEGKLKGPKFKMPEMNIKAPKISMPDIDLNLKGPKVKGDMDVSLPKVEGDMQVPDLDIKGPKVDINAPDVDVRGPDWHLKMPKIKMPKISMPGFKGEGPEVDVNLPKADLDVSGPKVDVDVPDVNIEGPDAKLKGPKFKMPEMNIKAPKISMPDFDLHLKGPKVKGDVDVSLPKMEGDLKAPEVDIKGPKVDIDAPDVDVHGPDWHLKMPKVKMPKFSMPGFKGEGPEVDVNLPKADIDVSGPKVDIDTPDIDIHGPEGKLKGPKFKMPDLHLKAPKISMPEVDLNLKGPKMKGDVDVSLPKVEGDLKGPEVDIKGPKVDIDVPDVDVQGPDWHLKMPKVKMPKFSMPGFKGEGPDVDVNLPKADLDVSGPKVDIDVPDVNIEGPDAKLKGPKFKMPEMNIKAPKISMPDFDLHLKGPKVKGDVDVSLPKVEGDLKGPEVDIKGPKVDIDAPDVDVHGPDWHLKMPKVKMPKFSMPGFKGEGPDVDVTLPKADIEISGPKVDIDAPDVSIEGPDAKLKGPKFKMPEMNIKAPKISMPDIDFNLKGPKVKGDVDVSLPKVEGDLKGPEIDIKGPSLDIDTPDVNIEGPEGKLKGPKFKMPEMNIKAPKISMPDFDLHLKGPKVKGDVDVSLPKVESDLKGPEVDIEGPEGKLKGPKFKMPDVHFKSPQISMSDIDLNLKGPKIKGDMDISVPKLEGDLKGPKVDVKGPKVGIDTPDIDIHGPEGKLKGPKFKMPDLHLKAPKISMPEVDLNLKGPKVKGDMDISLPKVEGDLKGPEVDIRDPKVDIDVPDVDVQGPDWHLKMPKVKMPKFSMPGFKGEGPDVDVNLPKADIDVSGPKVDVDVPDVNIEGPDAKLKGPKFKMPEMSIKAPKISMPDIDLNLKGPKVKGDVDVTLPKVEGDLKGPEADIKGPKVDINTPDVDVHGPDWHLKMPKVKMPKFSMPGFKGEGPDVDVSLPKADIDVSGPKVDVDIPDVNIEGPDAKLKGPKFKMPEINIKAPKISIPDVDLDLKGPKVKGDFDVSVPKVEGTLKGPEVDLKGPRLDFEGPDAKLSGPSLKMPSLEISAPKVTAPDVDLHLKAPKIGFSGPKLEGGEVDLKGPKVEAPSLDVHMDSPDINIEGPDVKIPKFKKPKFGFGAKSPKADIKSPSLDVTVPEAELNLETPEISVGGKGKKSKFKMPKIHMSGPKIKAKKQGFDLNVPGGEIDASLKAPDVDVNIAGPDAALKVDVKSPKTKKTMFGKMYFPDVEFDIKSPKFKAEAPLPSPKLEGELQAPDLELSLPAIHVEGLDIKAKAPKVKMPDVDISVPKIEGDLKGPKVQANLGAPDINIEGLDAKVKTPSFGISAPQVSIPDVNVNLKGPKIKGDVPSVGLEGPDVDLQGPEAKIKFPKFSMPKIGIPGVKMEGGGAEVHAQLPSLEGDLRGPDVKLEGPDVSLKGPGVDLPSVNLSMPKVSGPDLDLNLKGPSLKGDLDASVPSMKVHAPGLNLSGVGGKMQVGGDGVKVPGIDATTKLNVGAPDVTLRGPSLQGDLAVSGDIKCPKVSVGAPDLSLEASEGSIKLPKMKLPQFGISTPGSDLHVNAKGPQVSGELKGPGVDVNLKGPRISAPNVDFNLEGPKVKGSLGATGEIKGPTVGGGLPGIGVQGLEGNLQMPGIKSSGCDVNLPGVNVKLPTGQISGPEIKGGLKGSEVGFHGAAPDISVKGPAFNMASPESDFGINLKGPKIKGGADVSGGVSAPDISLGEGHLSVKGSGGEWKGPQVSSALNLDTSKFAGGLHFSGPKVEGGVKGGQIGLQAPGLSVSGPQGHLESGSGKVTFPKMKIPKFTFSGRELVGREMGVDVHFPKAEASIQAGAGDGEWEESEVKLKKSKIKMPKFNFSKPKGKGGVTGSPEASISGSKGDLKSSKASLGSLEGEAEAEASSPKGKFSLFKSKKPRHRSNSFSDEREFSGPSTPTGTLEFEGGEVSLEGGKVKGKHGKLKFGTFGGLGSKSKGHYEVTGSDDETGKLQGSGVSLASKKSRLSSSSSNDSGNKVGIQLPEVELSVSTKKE
UniProt Q96RD7: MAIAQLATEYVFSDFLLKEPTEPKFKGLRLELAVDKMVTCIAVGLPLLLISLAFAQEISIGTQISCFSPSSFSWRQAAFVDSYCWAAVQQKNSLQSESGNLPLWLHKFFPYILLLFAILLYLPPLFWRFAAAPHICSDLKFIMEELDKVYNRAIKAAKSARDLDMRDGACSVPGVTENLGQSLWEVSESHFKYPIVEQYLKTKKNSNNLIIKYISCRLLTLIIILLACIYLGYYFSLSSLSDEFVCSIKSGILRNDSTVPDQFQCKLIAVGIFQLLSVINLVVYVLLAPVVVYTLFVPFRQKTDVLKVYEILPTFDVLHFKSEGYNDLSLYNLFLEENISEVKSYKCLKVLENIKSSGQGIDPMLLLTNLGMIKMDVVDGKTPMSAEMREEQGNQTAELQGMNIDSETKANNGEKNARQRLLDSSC

Molecular target: AHNAK (human (endogenous in Rh18 and Rh30)) (UniProt Q09666)
Test: co-IP; whole-cell lysates of stable Rh18 and Rh30 cells induced for 48 h, IP lysis buffer, 5-8 ug antibody (anti-Myc or anti-AHNAK) for 16 h, protein A/G plus agarose beads, western blot

Which binding does the source give for pannexin 1 (from UniProt Q96RD7 1-426) here?
Its binding is “binds”.
